These are yes or no findings as the source states them, for the method shown. Binding seen in cells or lysates may run through a third protein. A result given as binding can be weak or reduced; the word gives no strength.
What was measured:
[1] = target: NCoR1 (nuclear receptor corepressor 1) (rat (endogenous in CA1 tissue)); assay: co-IP; rat CA1 tissue lysate (0.5 mg, RIPA buffer: 50 mM Tris-HCl pH 7.4, 150 mM NaCl, 2 mM EDTA, 1% IGEPAL CA-630, 20 mM N-ethylmaleimide) precipitated with anti-NCoR1 antibody and Protein A/G Mag Sepharose beads at 4 °C overnight, blotted with anti-DEC2 and anti-NCoR1; non-trained and trained rats, and PBS- or NMDA (8 mM)-injected rats; IgG as control
[2] = target: histone deacetylase 3 (HDAC3) (rat (endogenous in CA1 tissue)) (UniProt Q6P6W3); assay: co-IP; rat CA1 tissue lysates from trained and non-trained rats precipitated with anti-HDAC3 antibody, blotted with anti-NCoR1; IgG as control

Chains of the proteins cited; added tags and fusions are not shown.
UniProt Q6P6W3: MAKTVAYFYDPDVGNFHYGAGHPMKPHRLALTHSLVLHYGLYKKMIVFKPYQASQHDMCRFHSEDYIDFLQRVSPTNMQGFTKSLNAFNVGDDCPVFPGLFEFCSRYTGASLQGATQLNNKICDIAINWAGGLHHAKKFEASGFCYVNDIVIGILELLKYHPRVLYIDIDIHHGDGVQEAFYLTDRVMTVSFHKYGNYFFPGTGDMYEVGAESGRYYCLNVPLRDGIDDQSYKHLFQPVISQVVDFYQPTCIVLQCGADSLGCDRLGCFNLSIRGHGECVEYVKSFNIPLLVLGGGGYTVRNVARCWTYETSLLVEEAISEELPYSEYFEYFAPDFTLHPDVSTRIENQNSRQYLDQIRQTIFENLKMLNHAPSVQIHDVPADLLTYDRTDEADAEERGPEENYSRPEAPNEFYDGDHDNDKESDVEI
UniProt O35779: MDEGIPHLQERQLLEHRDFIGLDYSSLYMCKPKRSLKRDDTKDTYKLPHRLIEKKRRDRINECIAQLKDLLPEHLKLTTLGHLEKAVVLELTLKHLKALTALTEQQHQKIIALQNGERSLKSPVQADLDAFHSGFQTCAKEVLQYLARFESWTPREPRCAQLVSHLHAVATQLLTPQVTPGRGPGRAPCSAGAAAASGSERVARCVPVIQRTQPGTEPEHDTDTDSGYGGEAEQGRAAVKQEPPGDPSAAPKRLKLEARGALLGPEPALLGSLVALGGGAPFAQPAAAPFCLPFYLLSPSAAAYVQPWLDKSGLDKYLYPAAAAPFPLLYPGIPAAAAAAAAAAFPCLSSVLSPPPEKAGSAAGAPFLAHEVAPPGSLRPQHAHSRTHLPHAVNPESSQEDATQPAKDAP

binding [1]	binding [2]	Substance
binds		DEC2 (from UniProt O35779 1-410)
	binds	NCoR1 (nuclear receptor corepressor 1) (from UniProt A0A0G2K2B4)

Reference: publication PMC11335199
